Structures can show the parent of a compound that is named as a salt.
Columns and labels:
[1] = Capacity of polymer modified glass fiber monoliths for analytes; conditions: PSDVB; weight of analyte adsorbed at 30% breakthrough; N=3
[2] = as above; conditions: PSDVB-NHCOCH3; weight of analyte adsorbed at 30% breakthrough; N=3
[3] = as above; conditions: NVA-DVB “high”; weight of analyte adsorbed at 30% breakthrough; N=3

Compound | Amount of analyte adsorbed (sorbent capacity) [1] | Amount of analyte adsorbed (sorbent capacity) [2] | Amount of analyte adsorbed (sorbent capacity) [3]
CCCCNCC(O)c1ccc(O)cc1.CCCCNCC(O)c1ccc(O)cc1.O=S(=O)(O)O (stereo not drawn) [Bamathan hemisulfate] | 0 µg | 2.0 µg | 14 µg
CCCC(C)(COC(N)=O)COC(=O)NC(C)C (stereo not drawn) [Carisoprodol] | 0 µg | 1.2 µg | 57 µg
CNC(=C[N+](=O)[O-])NCCSCc1ccc(CN(C)C)o1 [Ranitidine HCl] | 0 µg | 1.1 µg | 44 µg
CC(C)(C)NCC(O)c1ccc(O)c(CO)c1 (stereo not drawn) [Salbutamol] | 0 µg | 0 µg | 4 µg
CC(C)(C)NC[C@H](O)COc1nsnc1N1CCOCC1 [Timolol maleate] | 0 µg | 1.2 µg | 65 µg

From patent publication US20060247361A1, “Polar functionalized polymer modified porous substrate for solid phase extraction” (priority 2005, published 2006)
